According to paper doi:10.1101/2021.07.15.452481:
No constants are given. Whether binding was seen depends on the method and setting.

Biological target: Thermotoga maritima YidC (Thermotoga maritima) (UniProt Q9X1H2)
Experiment: SEC

binding: no binding
B1: Thermotoga maritima YidC (protein, UniProt Q9X1H2 1-445)
chain: MVLRKVVAILLAILPIFLFAVEPIKVVRSEKEIVVLTRFEEYHFDLEKGILKDFYTLVDGRKHVFTYGNDGFDVLDEGTPLTVIEEPIVTGVGKVSEGFSDEVSIVYNYGYVKKIFTIKNNENYTFFVDIESSKPVDVTVPRVSVDTSTDRYLENYFASFNPKTRTLVLLKHDEGLLFEGTLKVNGQKRFIVFMGPNKRTLIKKAFPEDYDVLIKALVNIPGFNKWYDSVFYGLVWFFWWLKDLTKNFGWAIMLFTLIVRLILYPLYHAQTKSLINMRKLQPQIEAIKKKYKDPTKQQEALLKLYREAGVNPASGCLMLLIQLPIFMLLWSVIRYYVEEFAYSGSFLIWKDLSAGGFSNNWLFLVITIVASYYTTLLTSQDARTAWQGIIMSVIFPFLFVGLPSGLFLYYATNTLIQLAVTYYTYKRYKIKGLTTRELLGLPKKA
